Out of some 300,000 compounds screened, about 5,400 (1.8%) were called active. The shares of active, inactive and inconclusive entries below differ from those in the screen. The call rests on the fitted dose curve; tested in HEK293 cells. A potency beside an inconclusive call is a rough fit, not a confirmed value.
experiment: qHTS for inhibitors of binding or entry into cells for Marburg Virus; details: Marburg virus pseudotyped entry inhibition, cell reporter; series mostly up to 37.8 µM
Potency means the concentration at half of the fitted maximal effect.

SMILES	Potency
CCN(CC)S(=O)(=O)c1cccc(-c2nnc(SCCOc3ccccc3C)o2)c1	inconclusive: 20.6 µM [inhibitor, single point]
O=C1c2cccc3cccc(c23)C(=O)N1OS(=O)(=O)c1ccc(Br)cc1	inconclusive: 35.5 µM [activator, single point]
Cc1c(O)ccc(NS(=O)(=O)c2ccccc2)c1C	inconclusive: 5.62 µM [inhibitor, single point]
CCN(CC)c1ccc(S(=O)(=O)N2CCOCC2)cc1NC(=O)COC(=O)C1=COCCO1	inactive
O=C(Nc1ccc(N2CCN(C(=O)c3ccccc3)CC2)cc1)c1ccc(Br)o1	inconclusive: 35.5 µM [inhibitor, single point]
COc1ccc(C(=O)OCC(=O)Nc2nc3c(F)c(F)c(F)cc3s2)cc1OC	inconclusive: 3.16 µM [inhibitor, single point]
Cc1ccc(N2C(=S)NC3c4cc(Cl)ccc4OC2(C)C3C(=O)N(C)C)cc1 (centres undefined)	inconclusive: 17.8 µM [inhibitor, single point]
COc1ccc(-c2cc(C(=O)Nc3sc4c(c3C#N)CCCC4)no2)cc1OC	inconclusive: 6.31 µM [inhibitor, single point]
CC(C)(C)c1ccc(NC(=O)Nc2ccc(F)cc2)cc1	inconclusive: 5.01 µM [inhibitor, full curve]
CC(C)Oc1cccc(C2NC(=O)c3ccccc3O2)c1 (centres undefined)	inactive
O=C(CNC(=O)c1ccccc1F)OCC(=O)N1CCCCC1	inactive
O=C(CSc1oc(-c2ccccc2)nc1S(=O)(=O)c1ccccc1)c1ccccc1	inconclusive: 28.2 µM [inhibitor, partial curve, poor fit]
CSc1ccccc1-c1nnc(-c2ccc(Cl)cc2Cl)o1	inactive
CC(C)(CO)NCc1cc(Br)ccc1OCc1ccccc1	inconclusive: 29.1 µM [inhibitor, single point]
CCc1nnc(NS(=O)(=O)c2ccc(N3C(=O)c4ccccc4C3=O)cc2)s1	inconclusive: 14.1 µM [activator, single point]
O=C1C=CN(C(=O)Oc2ccccc2)CC1	inconclusive: 3.16 µM [inhibitor, single point]
Cc1cccc(NC(=S)NNc2cccc(Cl)c2)c1	inconclusive: 35.5 µM [inhibitor, single point]
Cc1ccc(NC(=O)COC(=O)C2(c3ccc(Cl)cc3)CCCC2)cc1	inconclusive: 5.8 µM [inhibitor, partial curve]
Cc1c(C(=O)Nc2ccc(Cl)cc2)c2ccccn2c1C(=O)c1ccc(F)cc1	inconclusive: 32.6 µM [inhibitor, single point]
O=C(CC(=O)c1ccccc1)Nc1ccccc1C(F)(F)F	inconclusive: 20 µM [activator, single point]
CCOP(=O)(CCP(=O)(OCC)OCC)OCC.C[CH2][Sn]([Cl])([Cl])[CH2]C	inconclusive: 2.82 µM [inhibitor, full curve, poor fit]
CCOc1ccc(CCNC(=O)c2cc(S(=O)(=O)N3CCOCC3)ccc2C)cc1OCC	inactive
CCn1c(C)c(C(=O)O)c2cc(OC)ccc21	inconclusive: 0.141 µM [activator, full curve, poor fit]

SMILES	Potency
COC(=O)CN(c1ccc(OC)cc1)S(=O)(=O)c1c(C)noc1C	inconclusive: 3.16 µM [activator, partial curve, poor fit]
Cc1nn(CC(=O)N2CCCCC2)c(=O)c2cc3occc3n12	inactive
CC1(C)Cc2c(cnn2-c2ccc(F)cc2)C(NC(=O)CCCN2CCCCC2=O)C1 (centres undefined)	inactive
CC(C)(C)C(=O)N1CCN(c2ccc([N+](=O)[O-])cc2Cl)CC1	inconclusive: 35.5 µM [inhibitor, single point]
Cc1ccc(C(=O)CNc2ccc(C)cc2C)cc1	inactive
Clc1ccc(Cn2c(-c3cccnc3Cl)nc3ccccc32)cc1	inactive
CC(C)(C)c1ccc(C(=O)OC/C(O)=C(\C#N)c2nc3ccccc3s2)cc1	inconclusive: 7.08 µM [inhibitor, partial curve, poor fit]
CCOCCCN(C)C1CCN(C(=O)c2oc3ccccc3c2NC(=O)COc2cccc(C)c2)CC1	inconclusive: 17.8 µM [inhibitor, partial curve, poor fit]
O=Cc1cn(-c2ccccc2)nc1-c1cc2ccccc2oc1=O	inactive
Cc1cc(C)c(C#N)c(SCCN2CCCCC2)n1	inconclusive: 6.31 µM [activator, single point]
S=C(NCC1CCCO1)Nc1ccccc1 (centres undefined)	inactive
COC(=O)CN1C(=O)C(O)(CC(=O)c2ccc(F)cc2)c2ccccc21 (centres undefined)	inactive
COc1cc(CNCCc2c[nH]c3ccccc23)cc(Cl)c1OCC(N)=O	inconclusive: 20 µM [inhibitor, single point]
COc1cc(NC(=S)NCCO)c(OC)cc1Cl	inactive
O=C(NNC1=Nc2cccc3cccc1c23)c1ccc(Br)cc1	inconclusive: 35.5 µM [inhibitor, single point]
O=C(COC(=O)c1ncc(Cl)c(Cl)c1Cl)Nc1ccc(Cl)cn1	inconclusive: 1.26 µM [inhibitor, single point]
CN(C)CCn1c(=O)n(Cc2ccccc2)c(=O)c2c3c(sc21)CCCCC3	inconclusive: 15.8 µM [inhibitor, partial curve, poor fit]
Cn1nc(C(=O)Nc2nc(-c3ccccn3)cs2)c2ccccc2c1=O	inconclusive: 1.58 µM [inhibitor, partial curve, poor fit]
CCN(CC)C(=O)c1ccc(NC(=O)CSc2nnnn2-c2cc(OC)ccc2OC)cc1	inconclusive: 6.51 µM [inhibitor, full curve, poor fit]
COC(=O)CCC(=O)OC1(C)C(=O)C=C2C=C(C3CC3)N(CCc3c[nH]c4ccccc34)C=C2C1=O (centres undefined)	inactive
c1ccc(C2CC(c3cccs3)=NN2c2ccccc2)cc1 (centres undefined)	inconclusive: 10 µM [inhibitor, partial curve, poor fit]
CCCCC(=O)N/N=C/c1cc([N+](=O)[O-])ccc1N1CCOCC1	inconclusive: 22.4 µM [inhibitor, single point]
CS(=O)(=O)N(CC(=O)Nc1ccc(S(=O)(=O)N2CCOCC2)cc1)c1ccccc1Br	inconclusive: 4.47 µM [activator, single point]

SMILES	Potency
CS(=O)(=O)c1nc(S(=O)(=O)c2ccc(Cl)cc2)c(N2CCCCCC2)s1	inactive
O=C(CN(c1ccc(Cl)c(Cl)c1)S(=O)(=O)c1ccccc1)N1CCc2ccccc2C1	inconclusive: 35.5 µM [inhibitor, partial curve, poor fit]
O=C(/C=C/c1cccs1)Nc1ccc([N+](=O)[O-])cc1	inactive
COc1ccc(Cc2nnc(SC(C)C(=O)Nc3ccc(C(N)=O)cc3)o2)cc1 (centres undefined)	inactive
Cc1csc(NC(=O)C2COc3ccccc3O2)n1 (centres undefined)	active: 4.47 µM
C=CCc1c(C)nc(SCc2ccccc2)[nH]c1=O	inconclusive: 1.26 µM [inhibitor, single point]
S=C(NCc1ccco1)N1CCN(C/C=C/c2ccccc2)CC1	inconclusive: 14.1 µM [inhibitor, partial curve, poor fit]
O=C(CSc1nc2cc(S(=O)(=O)N3CCOCC3)ccc2o1)NC1CCCc2ccccc21 (centres undefined)	inconclusive: 7.3 µM [inhibitor, full curve, poor fit]
COC(C(=O)Nc1ccc(F)cc1)c1ccccc1 (centres undefined)	inactive
COc1ccc2nc(SCc3ccccc3)nc(C)c2c1	inconclusive: 0.282 µM [activator, full curve, poor fit]
O=C(Nc1cccc(-c2ccc(N3CCOCC3)nn2)c1)c1ccc([N+](=O)[O-])cc1	inconclusive: 1.26 µM [activator, single point]
CN(Cc1ccon1)C(=O)CCc1nnc(Cc2ccc(-c3ccccc3)cc2)o1	inactive
Cc1ccc(S(=O)(=O)Nc2ccc(N(C)C)cc2)cc1	inactive
COc1ccc(/C=C/C(=O)NCC(=O)N/N=C/c2cc(Br)ccc2OCc2ccccc2)cc1	inconclusive: 0.112 µM [activator, full curve, poor fit]
CCOc1ccc2oc(-c3ccccc3)c(C(=O)N(C)C)c2c1	inconclusive: 2.06 µM [inhibitor, single point]
CCCc1cc(C(=O)Nc2c(C)nn(Cc3ccc(Cl)c(Cl)c3)c2C)no1	inconclusive: 8.91 µM [inhibitor, single point]
COc1ccc(CC(=O)N(Cc2ccccc2)c2ccc(C)cc2)cc1S(=O)(=O)N1CCOCC1	inconclusive: 5.01 µM [inhibitor, partial curve]
COC(CN(C(=O)CCl)C(C(=O)NC1CCCC(C)C1C)c1ccc(C)cc1)OC (centres undefined)	inconclusive: 32.6 µM [inhibitor, single point]
O=C(NC12CC3CC(CC(C3)C1)C2)N1CCN(c2nc(-c3ccccc3)cs2)CC1	inconclusive: 20 µM [inhibitor, partial curve]
Cc1nn(C)c(NC(=O)c2ccccc2Cl)c1Cl	inactive
COc1ccccc1/C=C\C(=O)NCC(=O)N/N=C/c1ccc(O)cc1O	inconclusive: 25.1 µM [inhibitor, single point]
CCN(CC)S(=O)(=O)c1ccc2c(c1)N(CC(=O)N(CCc1ccncc1)C(C)C)C(=O)CO2	inactive
Cc1ccc(NC(=S)N/N=C2\CCCCC2C)cc1 (centres undefined)	inconclusive: 35.5 µM [inhibitor, single point]

Shown with each value named: entries from further up
CN(Cc1ccon1)C(=O)CCc1nnc(Cc2ccc(-c3ccccc3)cc2)o1
  Potency: inactive
Cc1ccc(S(=O)(=O)Nc2ccc(N(C)C)cc2)cc1
  Potency: inactive
COc1ccc(/C=C/C(=O)NCC(=O)N/N=C/c2cc(Br)ccc2OCc2ccccc2)cc1
  Potency: inconclusive: 0.112 µM [activator, full curve, poor fit]
